# Test results reported in the supplement of paper PMC12067093, “Discovery and optimisation of a covalent ligand for TRIM25 and its application to targeted protein ubiquitination” (Chemical Science, 2025).
# Some of the results follow.
# Compound: Cc1cc(ccc1-c1ccccc1)C(=O)N1CCCN(CC1)C(=O)CCl [compound 10]
# Experiment: probe-labelled cysteine peptide fold change vs DMSO (competition) (log2 fold change); higher = less target engagement (more negative = stronger competition)
# Settings: THP-1, incubation time: 4 h
# 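Further: competitive profiling in live THP-1 cells: cysteine peptides tagged with an iodoacetamide desthiobiotin (IA-DTB) probe, intensity after compound treatment relative to DMSO-treated cells.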
Target,probe-labelled cysteine peptide fold change (10 µM),probe-labelled cysteine peptide fold change (50 µM)
GPHN_Q9NQX3_154_GSQECFQFILPALPHAIDLLR (UniProt Q9NQX3),-0.188,-0.0218
GNL1_P36915_365_DGVVTIGCVGFPNVGK (UniProt P36915),0.0739,0.161
GLUD1_P00367_376_AKPYEGSILEADCDILIPAASEK (UniProt P00367),-0.0816,0.0748
GMPPA_Q96IJ6_335_ESIVLHGATLQEHTCVLHSIVGWGSTVGR (UniProt Q96IJ6),-0.149,0.0194
GLS_O94925_518_GIHFCHDLVSLCNFHNYDNLR (UniProt O94925),-0.0806,-0.0918
GNAI2_P04899_255_LFDSICNNK (UniProt P04899),0.204,-0.0265
GNPNAT1_Q96EK6_157_ITLECLPQNVGFYK (UniProt Q96EK6),-0.166,0.152
GNB2_P62879_271_ADQELLMYSHDNIICGITSVAFSR (UniProt P62879),0.26,0.282
GNL3_Q9BVP2_113_EFGLCK (UniProt Q9BVP2),-0.03,-0.371
GNPNAT1_Q96EK6_128_VEDVVVSDECR (UniProt Q96EK6),0.0948,0.203
GPATCH11_Q8N954_195_ACQQLDVQK (UniProt Q8N954),-0.0412,-0.0321
GNAI2_P04899_112_QLFALSCTAEEQGVLPDDLSGVIR (UniProt P04899),-0.0471,-0.343
GPRIN1_Q7Z2K8_221_VDPLCSSK (UniProt Q7Z2K8),0.0483,-0.177
GOLGB1_Q14789_2664_RIAELEEELVCVQK (UniProt Q14789),0.146,0.236
GPATCH11_Q8N954_95_NALGCENK (UniProt Q8N954),-0.145,-0.567
GLMN_Q92990_406_CLLNTSNHSGVEAFIIQNIK (UniProt Q92990),0.161,-0.0896
GOT2_P00505_272_HFIEQGINVCLCQSYAK (UniProt P00505),0.22,0.311
GNAI2_P04899_66_IIHEDGYSEEECR (UniProt P04899),0.0083,0.0719
GNL3_Q9BVP2_156_VIEASDVVLEVLDARDPLGCR (UniProt Q9BVP2),-0.142,-0.726
GNB2_P62879_148+149_ELPGHTGYLSCCR (UniProt P62879),-0.0994,-0.832

# Pulled one by one from above, 2 records:
Target,probe-labelled cysteine peptide fold change (10 µM),probe-labelled cysteine peptide fold change (50 µM)
GNB2_P62879_148+149_ELPGHTGYLSCCR (UniProt P62879),-0.0994,-0.832
GNAI2_P04899_66_IIHEDGYSEEECR (UniProt P04899),0.0083,0.0719
